From patent US9549911B2, “Ginger metabolites and uses thereof” (North Carolina A&T State University, priority 2012, dated 2017)
For at least one compound, name, drawing or mass did not settle the structure. Some results were stated once for a whole list of compounds, not compound by compound.

Tests used:
HCT-116 cells = test: Measurement of reactive oxygen species (DCFH-DA); assay type: cell-based, human
Source text: The assay employed the cell-permeable fluorogenic probe 2′,7′-dichlorodihydrofluorescin diacetate [DCFH-DA] (Sigma Aldrich, St. […] In brief, DCFH-DA is diffused into cells and is deacetylated by cellular esterases to non-fluorescent 2′,7′-dichlorodihydrofluorescin (DCFH), which is rapidly oxidized to highly fluorescent 2′,7′-dichlorodihydrofluorescein (DCF) by intracellular hydrogen peroxide, or other low molecular weight peroxides. Measured fluorescence intensity is thus proportional to the amount of such peroxides in the cell at a given time. Human colon cancer cells HCT-116 or HT-29 were seeded in 96-well black-sided, clear-bottomed culture plates, with 5000 cells/well and were allowed to adhere for 24 hours in a 37° C. incubator with 5% CO2. […] After desired incubation times of 0, 2, 4, 8, or 24 hours, media and test compounds were aspirated. Cells were washed three times with 200 μL PBS before addition of 100 μL 1 mM DCF-DA. The fluorogenic probe permeated cell membranes and was processed to DCF for one hour at 37° C. After incubation, plates were immediately placed in a Biotek microplate reader to measure fluorescence at wavelengths of 485 (excitation) and 528 (emission). Raw values were normalized to DMSO control for each time point and are presented as fold induction versus 0 hour time point (n=3).

[1] = Kinetic study of [6]-shogaol metabolism to M6 in liver microsomes; assay type: in vitro ADME
Protocol: All incubations were performed in triplicate.

A549 cells = test: GSH rescue assay (MTT); assay type: cell-based, human; settings: A549, 24 hours, 5 mM GSH in culture media; read-out: IC50 (MTT) with excess GSH
HT-29 cells = test: Measurement of reactive oxygen species (DCFH-DA); assay type: cell-based, human

SMILES: CCCCC/C=C/C(=O)CCc1ccc(O)c(OC)c1 [[6]-shogaol, reference compound]
- ROS activity induced (HCT-116 cells): ≥ 2 fold
- Vmax/Km (intrinsic clearance) ([1]; monkey liver microsomes): 7.0 μL per minute per milligram protein
- Vmax/Km (intrinsic clearance) ([1]; rat liver microsomes): 80.5 μL per minute per milligram protein
- IC50 (A549 cells): > 80 µM
- ROS activity induced (HT-29 cells): less than 1.5 fold
